Test results from patent US20250367266A1, “ORAL PHARMACEUTICAL COMPOSITION FOR PREVENTION OR TREATMENT OF OSTEOPOROSIS CONTAINING TERIPARATIDE AND METHOD FOR PREPARATION THEREOF” (ICURE BNP CO., LTD., priority 2022, published 2025).
At least one compound was matched to its structure with a doubt left.

Tested on: dexamethasone-induced mouse osteoporosis model
Experiment: Serum bone formation and resorption markers and calcium
Assay type: in vivo, C57BL/6 mice
Conditions: SC 0.022 mg/kg DEX once daily
Method: To determine the anabolic effect of orally administered TRP/LDA/DA-DM on GC-induced osteoporosis, 9-week-old female C57BL/6 mice were randomly divided into 6 groups (n=10 per group): Control group (normal) (SC injection of normal saline once daily); Control group (DEX) (SC injection of 0.022 mg/kg DEX once daily); TRP-SC (0.02) (SC injection of 0.02 mg/kg TRP dissolved in physiological saline containing 0.022 mg/kg DEX once daily); TRP-oral (0.4) (SC injection of 0.022 mg/kg DEX dissolved in water with 0.4 mg/kg TRP orally once daily); RP (1:5:7)-15 (0.4) (once daily oral administration of TRP (1:5:7)-15 equivalent to 0.4 mg/kg TRP with SC injection of 0.022 mg/kg DEX); and TRP (1:5:7)-15 (0.8) (once daily oral administration of TRP (1:5:7)-15 equivalent to 0.8 mg/kg TRP with SC injection of 0.022 mg/kg DEX). Blood samples were collected for biochemical analysis 4 weeks after treatment.
After the final treatment once daily, serum samples were collected from mouse whole blood by centrifugation at 2000×g for 20 minutes. […]

SMILES: C[C@@H]1C[C@H]2[C@@H]3CCC4=CC(=O)C=C[C@]4(C)[C@@]3(F)[C@@H](O)C[C@]2(C)[C@@]1(O)C(=O)CO [DEX, dexamethasone]
- serum calcium levels compared to the control (normal) group: significantly downregulated
